Results published in the supplement of paper PMC10849652.
The list shows a part of the results.

Amino acid sequences for entries named in this document (tags omitted). A change or cut given only in a name is not applied to a line headed by its entry.
UniProt Q8IY81: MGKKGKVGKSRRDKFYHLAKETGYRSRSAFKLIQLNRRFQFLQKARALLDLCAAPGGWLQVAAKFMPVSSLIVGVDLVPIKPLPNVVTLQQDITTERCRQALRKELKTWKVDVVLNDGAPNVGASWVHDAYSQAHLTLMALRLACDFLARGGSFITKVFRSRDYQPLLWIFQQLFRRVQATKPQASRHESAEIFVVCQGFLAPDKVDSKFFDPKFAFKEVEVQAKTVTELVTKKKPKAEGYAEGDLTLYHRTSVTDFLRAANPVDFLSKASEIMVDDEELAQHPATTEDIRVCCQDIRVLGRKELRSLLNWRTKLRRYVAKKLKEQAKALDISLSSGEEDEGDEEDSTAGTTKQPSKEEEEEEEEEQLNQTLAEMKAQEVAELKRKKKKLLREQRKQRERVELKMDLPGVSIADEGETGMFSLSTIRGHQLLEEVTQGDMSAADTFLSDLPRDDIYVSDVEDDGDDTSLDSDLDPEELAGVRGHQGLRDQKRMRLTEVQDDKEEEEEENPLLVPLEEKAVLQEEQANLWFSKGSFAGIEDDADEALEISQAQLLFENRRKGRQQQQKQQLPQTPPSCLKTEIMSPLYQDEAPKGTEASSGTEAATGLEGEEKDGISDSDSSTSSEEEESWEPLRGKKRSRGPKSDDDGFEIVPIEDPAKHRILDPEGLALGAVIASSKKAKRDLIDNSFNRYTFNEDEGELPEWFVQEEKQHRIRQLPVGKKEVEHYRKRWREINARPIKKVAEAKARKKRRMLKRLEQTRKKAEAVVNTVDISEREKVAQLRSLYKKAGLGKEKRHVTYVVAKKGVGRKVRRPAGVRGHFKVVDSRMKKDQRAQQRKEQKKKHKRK
UniProt P30047: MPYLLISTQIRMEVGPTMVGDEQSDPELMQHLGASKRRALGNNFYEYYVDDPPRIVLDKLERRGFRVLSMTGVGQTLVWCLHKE
UniProt P31150: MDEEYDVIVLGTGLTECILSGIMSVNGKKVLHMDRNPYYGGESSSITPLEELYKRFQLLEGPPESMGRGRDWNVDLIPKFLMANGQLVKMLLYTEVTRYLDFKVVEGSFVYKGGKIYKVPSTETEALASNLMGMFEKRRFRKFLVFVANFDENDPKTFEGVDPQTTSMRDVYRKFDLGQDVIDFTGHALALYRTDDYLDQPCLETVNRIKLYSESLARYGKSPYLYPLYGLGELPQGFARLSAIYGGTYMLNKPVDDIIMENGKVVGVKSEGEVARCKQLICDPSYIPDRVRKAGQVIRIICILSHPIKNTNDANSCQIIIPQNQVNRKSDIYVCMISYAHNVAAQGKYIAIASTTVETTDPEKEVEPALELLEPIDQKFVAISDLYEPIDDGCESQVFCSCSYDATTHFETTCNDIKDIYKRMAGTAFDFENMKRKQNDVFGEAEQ
UniProt Q06546: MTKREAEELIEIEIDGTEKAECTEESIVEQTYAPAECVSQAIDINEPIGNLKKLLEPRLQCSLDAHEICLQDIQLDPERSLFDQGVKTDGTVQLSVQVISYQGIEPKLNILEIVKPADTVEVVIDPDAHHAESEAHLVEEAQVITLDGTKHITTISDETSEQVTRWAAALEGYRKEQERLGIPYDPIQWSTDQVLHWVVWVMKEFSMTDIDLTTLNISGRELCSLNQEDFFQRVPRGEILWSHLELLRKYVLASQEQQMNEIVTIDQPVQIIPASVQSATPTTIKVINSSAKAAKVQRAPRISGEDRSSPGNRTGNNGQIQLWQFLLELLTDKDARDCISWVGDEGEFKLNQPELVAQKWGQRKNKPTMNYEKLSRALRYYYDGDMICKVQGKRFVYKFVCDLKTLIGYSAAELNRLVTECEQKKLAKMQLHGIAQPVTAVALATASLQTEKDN
UniProt Q17RS7: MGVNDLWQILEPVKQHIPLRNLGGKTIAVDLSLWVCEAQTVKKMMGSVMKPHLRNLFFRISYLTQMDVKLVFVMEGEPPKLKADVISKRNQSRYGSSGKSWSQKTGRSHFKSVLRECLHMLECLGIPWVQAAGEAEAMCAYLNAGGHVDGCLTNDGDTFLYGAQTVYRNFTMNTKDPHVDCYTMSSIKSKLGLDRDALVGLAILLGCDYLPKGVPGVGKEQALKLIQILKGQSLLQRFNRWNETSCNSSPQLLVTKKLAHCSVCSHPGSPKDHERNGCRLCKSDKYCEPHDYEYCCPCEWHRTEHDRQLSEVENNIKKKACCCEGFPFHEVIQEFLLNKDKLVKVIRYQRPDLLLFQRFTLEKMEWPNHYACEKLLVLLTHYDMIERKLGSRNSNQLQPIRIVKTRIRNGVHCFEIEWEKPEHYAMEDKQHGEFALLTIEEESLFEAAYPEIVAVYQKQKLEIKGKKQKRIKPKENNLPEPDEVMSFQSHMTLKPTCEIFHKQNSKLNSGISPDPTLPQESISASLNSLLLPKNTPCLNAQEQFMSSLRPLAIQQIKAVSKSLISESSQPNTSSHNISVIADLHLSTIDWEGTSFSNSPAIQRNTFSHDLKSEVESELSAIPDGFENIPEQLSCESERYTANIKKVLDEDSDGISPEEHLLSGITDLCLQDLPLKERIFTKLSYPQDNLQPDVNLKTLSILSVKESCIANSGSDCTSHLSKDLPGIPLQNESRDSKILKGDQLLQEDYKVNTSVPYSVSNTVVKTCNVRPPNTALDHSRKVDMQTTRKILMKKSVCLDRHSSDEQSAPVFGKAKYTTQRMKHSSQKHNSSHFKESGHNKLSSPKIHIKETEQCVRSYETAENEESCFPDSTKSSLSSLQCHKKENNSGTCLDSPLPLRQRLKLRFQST
UniProt P50395: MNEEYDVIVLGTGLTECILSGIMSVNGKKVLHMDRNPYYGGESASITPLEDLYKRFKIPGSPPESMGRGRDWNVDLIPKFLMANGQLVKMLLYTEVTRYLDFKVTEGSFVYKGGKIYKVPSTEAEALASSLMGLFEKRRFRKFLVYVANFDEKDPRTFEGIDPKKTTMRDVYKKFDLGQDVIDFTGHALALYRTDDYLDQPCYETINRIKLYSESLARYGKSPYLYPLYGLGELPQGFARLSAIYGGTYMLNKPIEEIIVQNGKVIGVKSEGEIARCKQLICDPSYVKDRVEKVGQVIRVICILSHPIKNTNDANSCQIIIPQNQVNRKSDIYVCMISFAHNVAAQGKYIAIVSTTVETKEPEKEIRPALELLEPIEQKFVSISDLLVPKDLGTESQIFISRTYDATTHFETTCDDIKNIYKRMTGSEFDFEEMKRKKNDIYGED
UniProt P04062: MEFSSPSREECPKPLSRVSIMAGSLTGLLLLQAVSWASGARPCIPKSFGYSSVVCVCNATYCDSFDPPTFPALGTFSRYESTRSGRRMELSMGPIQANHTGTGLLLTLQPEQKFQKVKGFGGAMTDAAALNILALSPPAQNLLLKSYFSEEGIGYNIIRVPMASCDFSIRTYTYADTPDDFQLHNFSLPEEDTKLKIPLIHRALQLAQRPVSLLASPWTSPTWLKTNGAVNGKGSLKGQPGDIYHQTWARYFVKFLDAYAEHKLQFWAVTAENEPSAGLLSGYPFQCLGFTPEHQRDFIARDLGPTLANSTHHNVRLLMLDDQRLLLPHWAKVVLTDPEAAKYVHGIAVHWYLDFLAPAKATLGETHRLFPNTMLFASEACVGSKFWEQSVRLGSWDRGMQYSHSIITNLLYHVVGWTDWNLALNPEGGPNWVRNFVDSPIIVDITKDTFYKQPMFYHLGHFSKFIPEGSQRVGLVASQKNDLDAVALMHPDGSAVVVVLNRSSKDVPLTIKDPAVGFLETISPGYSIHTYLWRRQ
UniProt Q10471: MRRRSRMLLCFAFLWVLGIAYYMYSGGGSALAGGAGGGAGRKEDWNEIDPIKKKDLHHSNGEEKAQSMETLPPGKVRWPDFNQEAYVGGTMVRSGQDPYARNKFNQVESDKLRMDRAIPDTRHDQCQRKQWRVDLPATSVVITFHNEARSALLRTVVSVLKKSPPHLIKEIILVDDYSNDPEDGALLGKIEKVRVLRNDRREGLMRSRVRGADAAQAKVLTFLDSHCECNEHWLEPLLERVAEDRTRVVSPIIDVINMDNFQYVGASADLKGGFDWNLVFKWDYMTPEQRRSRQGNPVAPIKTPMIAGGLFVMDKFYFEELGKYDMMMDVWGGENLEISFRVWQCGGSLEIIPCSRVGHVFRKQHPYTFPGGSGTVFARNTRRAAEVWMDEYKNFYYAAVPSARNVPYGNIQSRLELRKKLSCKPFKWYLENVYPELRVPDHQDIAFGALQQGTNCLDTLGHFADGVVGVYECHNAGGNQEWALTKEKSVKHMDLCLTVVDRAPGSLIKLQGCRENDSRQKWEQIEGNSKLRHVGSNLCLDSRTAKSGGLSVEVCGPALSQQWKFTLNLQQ
UniProt O43524: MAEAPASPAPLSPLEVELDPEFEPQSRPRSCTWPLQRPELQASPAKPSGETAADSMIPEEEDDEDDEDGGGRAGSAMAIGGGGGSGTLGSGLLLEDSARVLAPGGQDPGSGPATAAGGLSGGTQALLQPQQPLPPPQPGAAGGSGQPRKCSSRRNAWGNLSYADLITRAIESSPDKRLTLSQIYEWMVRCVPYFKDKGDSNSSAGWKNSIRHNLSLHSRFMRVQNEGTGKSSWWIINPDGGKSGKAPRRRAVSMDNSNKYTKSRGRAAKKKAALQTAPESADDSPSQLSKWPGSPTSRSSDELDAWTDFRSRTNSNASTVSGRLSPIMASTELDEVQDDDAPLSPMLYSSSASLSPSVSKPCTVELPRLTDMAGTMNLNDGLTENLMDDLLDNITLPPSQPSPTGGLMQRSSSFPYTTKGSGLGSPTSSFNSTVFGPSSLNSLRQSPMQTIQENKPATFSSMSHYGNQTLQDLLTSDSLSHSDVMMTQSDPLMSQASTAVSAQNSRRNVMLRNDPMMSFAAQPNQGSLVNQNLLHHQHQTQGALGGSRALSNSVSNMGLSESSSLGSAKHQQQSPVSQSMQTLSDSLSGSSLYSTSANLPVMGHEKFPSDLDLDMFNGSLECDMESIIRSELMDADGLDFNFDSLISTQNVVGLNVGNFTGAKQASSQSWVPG
UniProt Q9UJY4: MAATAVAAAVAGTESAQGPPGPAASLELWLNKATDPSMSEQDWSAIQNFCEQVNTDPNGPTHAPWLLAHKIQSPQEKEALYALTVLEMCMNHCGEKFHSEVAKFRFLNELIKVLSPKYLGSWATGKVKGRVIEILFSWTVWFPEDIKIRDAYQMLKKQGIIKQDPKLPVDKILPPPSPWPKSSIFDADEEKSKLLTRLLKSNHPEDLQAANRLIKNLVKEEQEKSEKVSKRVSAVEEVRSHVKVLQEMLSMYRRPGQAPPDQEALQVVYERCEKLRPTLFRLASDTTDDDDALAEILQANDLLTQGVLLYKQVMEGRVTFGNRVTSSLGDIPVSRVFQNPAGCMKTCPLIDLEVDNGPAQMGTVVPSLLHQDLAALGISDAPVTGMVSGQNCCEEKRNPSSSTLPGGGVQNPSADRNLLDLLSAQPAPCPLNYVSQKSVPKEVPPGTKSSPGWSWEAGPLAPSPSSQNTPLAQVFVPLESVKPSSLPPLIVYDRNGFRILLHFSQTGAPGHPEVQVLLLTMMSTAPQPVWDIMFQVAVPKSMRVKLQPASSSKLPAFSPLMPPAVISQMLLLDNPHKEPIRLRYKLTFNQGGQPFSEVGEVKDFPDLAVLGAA
UniProt P15976: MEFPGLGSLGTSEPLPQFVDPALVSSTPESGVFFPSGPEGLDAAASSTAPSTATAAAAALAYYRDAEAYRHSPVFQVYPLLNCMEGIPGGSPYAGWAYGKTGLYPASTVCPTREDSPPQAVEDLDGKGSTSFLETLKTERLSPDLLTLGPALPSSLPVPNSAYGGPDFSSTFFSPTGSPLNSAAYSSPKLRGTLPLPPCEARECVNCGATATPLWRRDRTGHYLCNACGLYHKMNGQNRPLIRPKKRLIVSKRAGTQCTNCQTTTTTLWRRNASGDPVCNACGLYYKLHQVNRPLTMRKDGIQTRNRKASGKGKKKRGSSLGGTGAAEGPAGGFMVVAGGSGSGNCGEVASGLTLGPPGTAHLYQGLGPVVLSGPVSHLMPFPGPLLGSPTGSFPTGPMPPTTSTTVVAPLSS
UniProt Q8WXD5: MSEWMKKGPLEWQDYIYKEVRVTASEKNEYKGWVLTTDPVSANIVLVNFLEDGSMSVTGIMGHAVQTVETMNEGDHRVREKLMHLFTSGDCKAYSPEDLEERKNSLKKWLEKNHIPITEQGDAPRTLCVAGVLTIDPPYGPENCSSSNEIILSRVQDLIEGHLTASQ
UniProt O75600: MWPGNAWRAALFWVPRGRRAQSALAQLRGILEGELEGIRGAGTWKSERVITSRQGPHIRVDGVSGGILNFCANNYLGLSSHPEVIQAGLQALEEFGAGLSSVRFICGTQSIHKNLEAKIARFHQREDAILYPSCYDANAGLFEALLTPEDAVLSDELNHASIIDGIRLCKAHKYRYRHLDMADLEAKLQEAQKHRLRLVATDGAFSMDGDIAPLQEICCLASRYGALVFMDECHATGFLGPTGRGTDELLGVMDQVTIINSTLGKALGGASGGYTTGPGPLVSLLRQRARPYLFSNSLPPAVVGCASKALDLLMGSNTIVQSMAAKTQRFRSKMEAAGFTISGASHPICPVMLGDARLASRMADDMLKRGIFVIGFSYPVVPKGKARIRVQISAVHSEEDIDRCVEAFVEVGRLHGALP

Columns and labels:
Assay in all cases: log2 fold change, soluble protein after heating vs DMSO (PISA); higher = thermal stabilisation; K562 lysate, 10 uM; active = over 0.2 and 3.5 SD of the protein, either way, in both replicates (recomputed)
nilotinib = compound: Cc1cn(-c2cc(NC(=O)c3ccc(C)c(Nc4nccc(-c5cccnc5)n4)c3)cc(C(F)(F)F)c2)cn1 [nilotinib]
In short: (§1)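 Thermal stability, expressed as log-two fold change relative to solvent controls, is given from duplicates. Crude K562 extract in PBS pH 7.4 with 1 mM MgCl2, at 1 mg/mL protein, was treated with 10 μM compound for 30 min and heated in aliquots for 3 min across 48°C-58°C. After pooling, adjustment to 0.5% NP-40 at 4°C and centrifugation at 21,000xg for 90 min, supernatant protein was measured by TMTpro 16plex LC-MS/MS with channel sums equalised.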

[1] = compound: Cc1nc(Nc2n[nH]c3c2CN(C(=O)N[C@H](CN(C)C)c2ccccc2)C3(C)C)c2sccc2n1
In short: as §1

dasatinib = compound: Cc1nc(Nc2ncc(C(=O)Nc3c(C)cccc3Cl)s2)cc(N2CCN(CCO)CC2)n1 [dasatinib]
In short: as §1

[2] = compound: Cc1ncc(-c2ccnc(Nc3ccc(S(C)(=O)=O)cc3)n2)n1C(C)C
In short: as §1

[3] = compound: Cn1cc(-c2ccc3c(c2)CCN3C(=O)Cc2cccc(C(F)(F)F)c2)c2c(N)ncnc21
In short: as §1

quisinostat = compound: Cn1cc(CNCC2CCN(c3ncc(C(=O)NO)cn3)CC2)c2ccccc21 [quisinostat]
In short: as §1

tipifarnib = compound: Cn1cncc1[C@@](N)(c1ccc(Cl)cc1)c1ccc2c(c1)c(-c1cccc(Cl)c1)cc(=O)n2C [tipifarnib]
In short: as §1

[4] = compound: NC(=O)Nc1cc(-c2cccc(F)c2)sc1C(=O)N[C@H]1CCCNC1
In short: as §1

[5] = compound: NC(=O)c1cnc(N[C@@H]2CCCC[C@@H]2N)nc1Nc1cccc(-n2nccn2)c1
In short: as §1

[6] = compound: NC1(c2ccc(-c3nc4ccn5c(=O)[nH]nc5c4cc3-c3ccccc3)cc2)CCC1
In short: as §1

Measured: log2 fold change

FTSJ3 (UniProt Q8IY81)
inactive: nilotinib 0.001 | [1] -0.025 | dasatinib 0.021 | [2] 0.016 | [3] -0.001 | quisinostat 0.066 | tipifarnib -0.046 | [4] 0.047 | [5] 0.033 | [6] -0.015

FSCN1 (UniProt Q16658)
inactive: nilotinib 0.023 | [1] -0.003 | dasatinib 0.004 | [2] 0.004 | [3] 0.004 | quisinostat 0.067 | tipifarnib 0.022 | [4] -0.022 | [5] -0.005 | [6] 0.015

GCFC2 (UniProt P16383)
inactive: nilotinib 0.005 | [1] -0.02 | dasatinib -0.023 | [2] -0.011 | [3] 0.058 | quisinostat 0 | tipifarnib 0.033 | [4] 0.022 | [5] -0.003 | [6] 0.014

GCHFR (UniProt P30047)
inactive: nilotinib -0.052 | [1] 0.007 | dasatinib -0.018 | [2] 0.076 | [3] 0.035 | quisinostat -0.171 | tipifarnib 0.008 | [4] -0.007 | [5] 0.07 | [6] -0.035

GDI1 (UniProt P31150)
inactive: nilotinib -0.015 | [1] -0.015 | dasatinib 0.007 | [2] -0.042 | [3] 0.026 | quisinostat 0.017 | tipifarnib -0.002 | [4] -0.013 | [5] -0.011 | [6] 0.014

GATC (UniProt O43716)
inactive: nilotinib 0.053 | [1] -0.045 | dasatinib 0.043 | [2] 0.077 | [3] -0.02 | quisinostat 0.189 | tipifarnib 0.115 | [4] -0.117 | [5] -0.049 | [6] 0.007

GABPA (UniProt Q06546)
inactive: nilotinib 0.031 | [1] -0.021 | dasatinib -0.032 | [2] 0.005 | [3] 0.002 | quisinostat -0.025 | tipifarnib 0.011 | [4] -0.007 | [5] 0.005 | [6] 0.043

GCN1 (UniProt Q92616)
inactive: nilotinib 0.015 | [1] -0.017 | dasatinib -0.071 | [2] 0.001 | [3] 0.066 | quisinostat -0.072 | tipifarnib -0.01 | [4] 0.047 | [5] 0.001 | [6] -0.037

GEN1 (UniProt Q17RS7)
inactive: nilotinib -0.047 | [1] 0.23 | dasatinib 0.14 | [2] 0.004 | [3] -0.25 | quisinostat -0.222 | tipifarnib -0.204 | [4] 0.044

GEMIN4 (UniProt P57678)
inactive: nilotinib -0.001 | [1] -0.014 | dasatinib -0.047 | [2] -0.001 | [3] 0.101 | quisinostat -0.056 | tipifarnib 0.006 | [4] 0.077 | [5] -0.001 | [6] -0.097

FUBP1 (UniProt Q96AE4)
inactive: nilotinib -0.06 | [1] -0.126 | dasatinib 0.103 | [2] 0.022 | [3] -0.024 | quisinostat 0.026 | tipifarnib 0.167 | [4] 0.022 | [5] -0.035 | [6] 0.007

FXN (UniProt Q16595)
inactive: nilotinib 0.048 | [1] 0.053 | dasatinib -0.012 | [2] 0.079 | [3] 0.015 | quisinostat 0.043 | tipifarnib 0.074 | [4] -0.008 | [5] -0.041 | [6] 0.033

GAPVD1 isoform 6 (UniProt Q14C86)
inactive: nilotinib 0.006 | [1] 0.005 | dasatinib -0.05 | [2] -0.005 | [3] 0.044 | quisinostat -0.029 | tipifarnib -0.02 | [4] 0.032 | [5] 0.013 | [6] 0.026

GDPD1 (UniProt Q8N9F7)
inactive: nilotinib -0.047 | [1] 0.011 | dasatinib 0.026 | [2] 0.011 | [3] -0.05 | quisinostat -0.056 | tipifarnib 0.024 | [4] -0.02 | [5] 0.053 | [6] -0.017

GDI2 (UniProt P50395)
inactive: nilotinib -0.001 | [1] 0.006 | dasatinib 0.002 | [2] 0.009 | [3] -0.022 | quisinostat 0.054 | tipifarnib 0.007 | [4] -0.004 | [5] -0.003 | [6] 0.002

GCC1 (UniProt Q96CN9)
inactive: nilotinib 0.008 | [1] 0.028 | dasatinib -0.049 | [2] 0.075 | [3] -0.034 | quisinostat -0.04 | tipifarnib -0.012 | [4] 0 | [5] -0.036 | [6] 0.077

GCSH (UniProt P23434)
inactive: nilotinib 0.068 | [1] 0.034 | dasatinib 0.123 | [2] -0.029 | [3] 0.024 | quisinostat -0.024 | tipifarnib -0.014 | [4] 0.014 | [5] -0.027 | [6] -0.071

GBA (UniProt P04062)
inactive: nilotinib 0.051 | [1] 0.014 | dasatinib -0.07 | [2] 0.012 | [3] 0.041 | quisinostat -0.051 | tipifarnib -0.093 | [4] -0.012 | [5] 0.067 | [6] -0.012

FOXK1 (UniProt P85037)
inactive: nilotinib -0.006 | [1] -0.014 | dasatinib -0.065 | [2] -0.038 | [3] 0.004 | quisinostat -0.031 | tipifarnib -0.042 | [4] -0.002 | [5] -0.011 | [6] 0.007

FRA10AC1 (UniProt Q70Z53)
inactive: nilotinib 0 | [1] -0.033 | dasatinib 0.005 | [2] -0.022 | [3] 0.023 | quisinostat 0.021 | tipifarnib 0.035 | [4] -0.028 | [5] 0.028 | [6] -0.014

GADD45GIP1 (UniProt Q8TAE8)
inactive: nilotinib -0.001 | [1] 0.008 | dasatinib -0.039 | [2] -0.009 | [3] 0.097 | quisinostat 0.033 | tipifarnib 0.001 | [4] 0.017 | [5] 0.056 | [6] 0.005

GALNT2 (UniProt Q10471)
inactive: nilotinib -0.02 | [1] -0.054 | dasatinib 0.003 | [2] 0.008 | [3] 0.008 | quisinostat 0.081 | tipifarnib -0.067 | [4] -0.004 | [5] -0.002 | [6] -0.031

FOXO3 (UniProt O43524)
inactive: nilotinib -0.128 | [1] 0.191 | dasatinib 0.005 | [2] -0.228 | [3] -0.018 | quisinostat -0.05 | tipifarnib 0.023 | [4] 0.026 | [5] -0.007 | [6] -0.058

FYCO1 isoform 4 (UniProt Q9BQS8)
inactive: nilotinib -0.02 | [1] -0.022 | dasatinib 0.011 | [2] 0.016 | [3] 0.031 | quisinostat -0.014 | tipifarnib -0.012 | [4] 0.019 | [5] 0.015 | [6] -0.008

GGA2 (UniProt Q9UJY4)
inactive: nilotinib -0.028 | [1] -0.047 | dasatinib -0.043 | [2] 0 | [3] 0.032 | quisinostat -0.022 | tipifarnib -0.003 | [4] 0.066 | [5] 0.043 | [6] 0.001

9 neighbouring records already listed, for reference:
GDPD1 (UniProt Q8N9F7)
inactive: nilotinib -0.047 | [1] 0.011 | dasatinib 0.026 | [2] 0.011 | [3] -0.05 | quisinostat -0.056 | tipifarnib 0.024 | [4] -0.02 | [5] 0.053 | [6] -0.017

GDI2 (UniProt P50395)
inactive: nilotinib -0.001 | [1] 0.006 | dasatinib 0.002 | [2] 0.009 | [3] -0.022 | quisinostat 0.054 | tipifarnib 0.007 | [4] -0.004 | [5] -0.003 | [6] 0.002

GCC1 (UniProt Q96CN9)
inactive: nilotinib 0.008 | [1] 0.028 | dasatinib -0.049 | [2] 0.075 | [3] -0.034 | quisinostat -0.04 | tipifarnib -0.012 | [4] 0 | [5] -0.036 | [6] 0.077

GCSH (UniProt P23434)
inactive: nilotinib 0.068 | [1] 0.034 | dasatinib 0.123 | [2] -0.029 | [3] 0.024 | quisinostat -0.024 | tipifarnib -0.014 | [4] 0.014 | [5] -0.027 | [6] -0.071

GBA (UniProt P04062)
inactive: nilotinib 0.051 | [1] 0.014 | dasatinib -0.07 | [2] 0.012 | [3] 0.041 | quisinostat -0.051 | tipifarnib -0.093 | [4] -0.012 | [5] 0.067 | [6] -0.012

FOXK1 (UniProt P85037)
inactive: nilotinib -0.006 | [1] -0.014 | dasatinib -0.065 | [2] -0.038 | [3] 0.004 | quisinostat -0.031 | tipifarnib -0.042 | [4] -0.002 | [5] -0.011 | [6] 0.007

FRA10AC1 (UniProt Q70Z53)
inactive: nilotinib 0 | [1] -0.033 | dasatinib 0.005 | [2] -0.022 | [3] 0.023 | quisinostat 0.021 | tipifarnib 0.035 | [4] -0.028 | [5] 0.028 | [6] -0.014

GADD45GIP1 (UniProt Q8TAE8)
inactive: nilotinib -0.001 | [1] 0.008 | dasatinib -0.039 | [2] -0.009 | [3] 0.097 | quisinostat 0.033 | tipifarnib 0.001 | [4] 0.017 | [5] 0.056 | [6] 0.005

GALNT2 (UniProt Q10471)
inactive: nilotinib -0.02 | [1] -0.054 | dasatinib 0.003 | [2] 0.008 | [3] 0.008 | quisinostat 0.081 | tipifarnib -0.067 | [4] -0.004 | [5] -0.002 | [6] -0.031

Following part

G3BP1 (UniProt Q13283)
inactive: nilotinib -0.046 | [1] -0.014 | dasatinib 0.029 | [2] -0.035 | [3] 0.009 | quisinostat 0.005 | tipifarnib 0.013 | [4] 0.009 | [5] -0.011 | [6] 0.024

GATA1 (UniProt P15976)
inactive: nilotinib -0.087 | [1] -0.098 | dasatinib -0.075 | [2] 0.049 | [3] -0.003 | quisinostat -0.041 | tipifarnib -0.07 | [4] 0.111 | [5] -0.037 | [6] -0.013

GCLC (UniProt P48506)
inactive: nilotinib -0.006 | [1] 0.009 | dasatinib 0.038 | [2] 0.029 | [3] -0.02 | quisinostat -0.007 | tipifarnib 0.07 | [4] 0 | [5] 0.024 | [6] 0.012

GEMIN6 (UniProt Q8WXD5)
inactive: nilotinib 0.007 | [1] -0.029 | dasatinib 0.031 | [2] -0.002 | [3] -0.001 | quisinostat 0.047 | tipifarnib 0.032 | [4] -0.028 | [5] 0.005 | [6] -0.007

GCAT isoform 2 (UniProt O75600)
inactive: nilotinib 0.036 | [1] -0.044 | dasatinib -0.003 | [2] 0.003 | [3] -0.013 | quisinostat 0.035 | tipifarnib 0.049 | [4] 0.04 | [5] 0.047 | [6] -0.009
